The numbers were not newly measured in patent US9725459B2, “3-oxo-tetrahydro-furo[3,2-B]pyrrol-4(5H)-yl) derivatives I” (GRÜNENTHAL GMBH, priority 2014, dated 2017), which cites them from elsewhere.

For the series the following is noted: known characteristic of control compound; cited from earlier work.

Consider `CC(C)NCC(O)COc1ccc(CC(N)=O)cc1` (stereo not shown) [atenolol], for which the human absorption result is “approximately 50%”.
